Experimental data published in publication PMC9988257.
These are yes or no findings as the source states them, for the method shown. In cells and extracts the contact can be indirect. Here binding means that the protein was enriched with, or labelled near, the bait; the list need not be complete. Tags and fused reporters may be left off the sequences shown.

The chains behind the UniProt entries cited, without tags or fusion partners.
UniProt O35250: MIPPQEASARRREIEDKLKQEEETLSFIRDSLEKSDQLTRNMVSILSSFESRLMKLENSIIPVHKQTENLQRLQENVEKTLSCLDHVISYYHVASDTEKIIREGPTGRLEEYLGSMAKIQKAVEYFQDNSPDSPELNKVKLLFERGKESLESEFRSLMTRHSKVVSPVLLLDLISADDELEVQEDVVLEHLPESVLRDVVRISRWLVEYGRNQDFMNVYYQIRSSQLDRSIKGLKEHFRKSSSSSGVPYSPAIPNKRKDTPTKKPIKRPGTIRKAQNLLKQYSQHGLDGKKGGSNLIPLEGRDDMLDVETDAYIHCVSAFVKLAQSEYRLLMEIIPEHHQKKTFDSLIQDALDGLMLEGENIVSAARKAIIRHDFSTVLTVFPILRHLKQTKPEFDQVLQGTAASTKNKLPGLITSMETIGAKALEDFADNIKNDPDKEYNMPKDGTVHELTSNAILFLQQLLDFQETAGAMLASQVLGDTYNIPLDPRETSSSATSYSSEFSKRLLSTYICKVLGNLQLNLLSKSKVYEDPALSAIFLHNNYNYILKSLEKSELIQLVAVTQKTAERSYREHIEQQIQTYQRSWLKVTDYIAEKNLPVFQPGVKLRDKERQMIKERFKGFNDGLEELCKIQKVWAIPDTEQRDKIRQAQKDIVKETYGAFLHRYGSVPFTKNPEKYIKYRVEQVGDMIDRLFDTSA
UniProt O35382: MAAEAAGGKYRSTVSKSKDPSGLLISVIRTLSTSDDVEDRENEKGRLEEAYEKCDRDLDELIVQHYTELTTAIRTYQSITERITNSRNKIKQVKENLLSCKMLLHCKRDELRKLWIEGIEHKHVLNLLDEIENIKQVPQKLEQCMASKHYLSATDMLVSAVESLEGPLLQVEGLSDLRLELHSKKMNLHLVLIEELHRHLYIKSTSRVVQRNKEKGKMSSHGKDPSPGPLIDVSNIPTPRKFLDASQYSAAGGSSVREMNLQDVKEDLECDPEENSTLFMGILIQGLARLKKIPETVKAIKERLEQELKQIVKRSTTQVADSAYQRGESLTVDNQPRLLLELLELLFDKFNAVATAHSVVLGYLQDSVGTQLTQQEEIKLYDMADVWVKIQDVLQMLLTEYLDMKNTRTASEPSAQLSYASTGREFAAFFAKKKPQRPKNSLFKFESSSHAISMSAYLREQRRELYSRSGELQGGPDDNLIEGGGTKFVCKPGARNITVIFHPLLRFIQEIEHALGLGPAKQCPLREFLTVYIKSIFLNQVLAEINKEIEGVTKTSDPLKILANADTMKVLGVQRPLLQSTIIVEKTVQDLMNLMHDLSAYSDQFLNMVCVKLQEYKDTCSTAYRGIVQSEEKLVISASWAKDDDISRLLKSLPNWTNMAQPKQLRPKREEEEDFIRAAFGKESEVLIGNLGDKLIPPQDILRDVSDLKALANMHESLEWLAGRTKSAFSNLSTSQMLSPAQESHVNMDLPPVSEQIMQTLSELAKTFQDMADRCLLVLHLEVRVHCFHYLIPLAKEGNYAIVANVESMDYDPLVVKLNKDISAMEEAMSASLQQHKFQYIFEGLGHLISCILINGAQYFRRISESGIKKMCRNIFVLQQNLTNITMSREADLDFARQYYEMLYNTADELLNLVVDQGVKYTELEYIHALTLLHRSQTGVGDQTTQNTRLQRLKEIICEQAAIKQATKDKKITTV
UniProt Q3TPX4: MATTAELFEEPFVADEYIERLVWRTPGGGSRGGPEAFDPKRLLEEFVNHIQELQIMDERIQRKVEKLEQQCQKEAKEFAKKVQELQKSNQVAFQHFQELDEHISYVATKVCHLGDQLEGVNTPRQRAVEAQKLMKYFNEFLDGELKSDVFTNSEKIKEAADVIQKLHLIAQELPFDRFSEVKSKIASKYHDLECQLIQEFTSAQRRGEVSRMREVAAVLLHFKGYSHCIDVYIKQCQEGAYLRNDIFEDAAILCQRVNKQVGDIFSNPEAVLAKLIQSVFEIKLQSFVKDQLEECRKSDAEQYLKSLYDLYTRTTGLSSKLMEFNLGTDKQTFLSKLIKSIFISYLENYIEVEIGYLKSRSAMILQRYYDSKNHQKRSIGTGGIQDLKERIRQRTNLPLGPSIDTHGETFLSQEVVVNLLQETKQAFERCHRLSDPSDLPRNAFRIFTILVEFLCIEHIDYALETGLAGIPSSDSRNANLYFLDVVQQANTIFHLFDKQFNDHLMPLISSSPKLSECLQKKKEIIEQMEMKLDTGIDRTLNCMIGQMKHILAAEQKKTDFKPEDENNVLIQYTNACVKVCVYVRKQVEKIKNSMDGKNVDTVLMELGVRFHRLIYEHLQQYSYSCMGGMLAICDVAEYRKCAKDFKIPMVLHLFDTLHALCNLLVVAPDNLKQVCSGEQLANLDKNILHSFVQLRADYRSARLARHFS

Legend:
[1] = biological target: T1, MEF-tagged exophilin-8, WT (expressed in MIN6 cells) (mouse) (UniProt Q8K3I4); experiment: affinity purification with mass spectrometry; MIN6 cells infected with adenovirus; anti-FLAG immunoprecipitates, gel stained with Oriole, specific bands cut, trypsin digest, LC-MS/MS
T1 sequence: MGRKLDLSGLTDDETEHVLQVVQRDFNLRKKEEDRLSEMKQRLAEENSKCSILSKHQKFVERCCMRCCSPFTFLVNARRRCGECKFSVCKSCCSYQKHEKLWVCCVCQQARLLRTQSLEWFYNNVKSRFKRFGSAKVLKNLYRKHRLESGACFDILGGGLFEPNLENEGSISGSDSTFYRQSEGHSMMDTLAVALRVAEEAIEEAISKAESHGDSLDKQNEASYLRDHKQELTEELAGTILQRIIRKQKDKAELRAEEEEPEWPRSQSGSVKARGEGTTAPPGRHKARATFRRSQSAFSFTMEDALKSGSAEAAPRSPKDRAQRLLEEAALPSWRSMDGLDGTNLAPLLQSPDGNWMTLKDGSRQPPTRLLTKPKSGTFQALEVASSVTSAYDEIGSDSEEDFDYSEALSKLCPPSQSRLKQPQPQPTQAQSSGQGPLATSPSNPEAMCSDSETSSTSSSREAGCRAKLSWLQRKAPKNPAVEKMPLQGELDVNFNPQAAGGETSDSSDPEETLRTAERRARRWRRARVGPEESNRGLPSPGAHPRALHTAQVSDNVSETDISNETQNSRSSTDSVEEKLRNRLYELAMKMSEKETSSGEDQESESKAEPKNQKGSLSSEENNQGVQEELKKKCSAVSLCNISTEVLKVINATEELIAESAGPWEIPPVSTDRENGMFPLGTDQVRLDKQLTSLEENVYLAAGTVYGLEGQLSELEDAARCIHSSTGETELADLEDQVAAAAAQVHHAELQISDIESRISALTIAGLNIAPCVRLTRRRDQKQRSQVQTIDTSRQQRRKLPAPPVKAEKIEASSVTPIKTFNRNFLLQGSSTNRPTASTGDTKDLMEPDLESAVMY

[2] = biological target: T2, MEF-tagged melanophilin (expressed in MIN6 cells) (mouse) (UniProt Q91V27); experiment: as above
T2 sequence: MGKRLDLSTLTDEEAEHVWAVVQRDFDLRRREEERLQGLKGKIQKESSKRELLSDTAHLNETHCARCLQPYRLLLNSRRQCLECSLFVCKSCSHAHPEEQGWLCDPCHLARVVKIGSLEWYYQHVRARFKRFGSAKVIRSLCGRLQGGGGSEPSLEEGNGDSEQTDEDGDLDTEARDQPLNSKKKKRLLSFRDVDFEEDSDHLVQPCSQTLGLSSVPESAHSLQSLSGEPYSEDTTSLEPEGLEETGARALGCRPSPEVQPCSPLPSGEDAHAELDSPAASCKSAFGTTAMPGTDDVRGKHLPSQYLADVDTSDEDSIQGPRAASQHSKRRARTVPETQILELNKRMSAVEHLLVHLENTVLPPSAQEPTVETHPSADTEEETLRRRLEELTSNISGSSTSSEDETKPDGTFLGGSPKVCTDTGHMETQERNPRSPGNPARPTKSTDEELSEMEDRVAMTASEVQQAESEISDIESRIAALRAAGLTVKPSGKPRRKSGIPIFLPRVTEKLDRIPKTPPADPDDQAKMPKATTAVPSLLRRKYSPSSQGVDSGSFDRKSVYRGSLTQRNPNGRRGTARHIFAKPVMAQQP

Substance | binding [1] | binding [2]
EXO70 (endogenous, MIN6 cells) (from UniProt O35250 1-697) | binds | binds
SEC8 (endogenous, MIN6 cells) (from UniProt O35382 1-975) | binds | binds
SEC10 (endogenous, MIN6 cells) (from UniProt Q3TPX4 1-708) | binds | binds
